Results are given in words; binding and its absence hold for the method and conditions named. In cells and extracts the contact can be indirect. Binding can be weak; no strength is given.
Tests used:
[1] = biological target: p85 regulatory subunit of PI3K (human (endogenous in patient-derived GBM cells)); test: co-IP; IP with anti-p85 antibody from 500 µg protein of PTEN-deficient GBM cell lysate (25 mM Tris-HCl pH 7.4, 150 mM NaCl, 1% NP-40, 1 mM EDTA, 5% glycerol), overnight, protein A/G beads, three washes; immunoblot with PIP4K2A antibody; IgG as control antibody
[2] = biological target: p85 regulatory subunit of PI3K (human (endogenous in patient-derived GBM cells)); test: co-IP; co-IP of p85, PIP4K2A and PTEN from PTEN-deficient GBM cells transduced with control or doxycycline-inducible PTEN wild-type; same lysis buffer and IP procedure; IgG as control antibody

binding [1]: binds | binding [2]: binds
B1: PIP4K2A (phosphatidylinositol-5-phosphate 4-kinase, type II, alpha) (enzyme, UniProt P48426 1-406)
chain: MATPGNLGSSVLASKTKTKKKHFVAQKVKLFRASDPLLSVLMWGVNHSINELSHVQIPVMLMPDDFKAYSKIKVDNHLFNKENMPSHFKFKEYCPMVFRNLRERFGIDDQDFQNSLTRSAPLPNDSQARSGARFHTSYDKRYIIKTITSEDVAEMHNILKKYHQYIVECHGITLLPQFLGMYRLNVDGVEIYVIVTRNVFSHRLSVYRKYDLKGSTVAREASDKEKAKELPTLKDNDFINEGQKIYIDDNNKKVFLEKLKKDVEFLAQLKLMDYSLLVGIHDVERAEQEEVECEENDGEEEGESDGTHPVGTPPDSPGNTLNSSPPLAPGEFDPNIDVYGIKCHENSPRKEVYFMAIIDILTHYDAKKKAAHAAKTVKHGAGAEISTVNPEQYSKRFLDFIGHILT

Reference: publication PMC6504209
